Record: PubChem BioAssay AID1259308 (NCATS, 2017)

Aim: 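Genes whose loss raises luciferase production in HEK293 cells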 (primary screen)
Cell system: human HEK293 embryonic kidney cells stably expressing firefly luciferase (HEK-CMV-Luc2-Hygro)
Reagents: single siRNA against human genes, 0.8 pmol siRNA per well
Duration: 72 h
Measurement: 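Reporter luminescence and viable-cell signal on separate replicate plates, given as percent of non-targeting control and median/MAD z-scores, plus per-cell luciferase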
Direction: total luciferase, z-score and total luciferase, % of control: higher = more reporter protein produced; luciferase per cell, z-score: higher = more reporter output per viable cell; viable cells, % of control: higher = more viable cells
Active means: 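An siRNA counts as active if its total luciferase robust z-score exceeds 3; genes with two or more such siRNAs out of three were retested with fresh siRNAs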
Meaning of the calls: active = raised luciferase; inactive = no rise
Here is a random part of about 59,000 deposited reagents. About 1,510 of them (2.6%) were called active. 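Calls use total luciferase alone and ignore viability, so some active siRNAs may act by altering cell number.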 Reagents against one gene are numbered here.

gene knocked down | reagent | total luciferase, z-score | total luciferase, % of control | luciferase per cell, z-score | viable cells, % of control | Outcome
SORL1 (sortilin related receptor 1) | 1 | -0.399 | 74 | -0.448 | 93 | inactive
SORL1 (sortilin related receptor 1) | 2 | -0.988 | 62.2 | -1.7 | 109 | inactive
SORL1 (sortilin related receptor 1) | 3 | 2.83 | 138 | 2.72 | 75.3 | inactive
EFCAB7 (EF-hand calcium binding domain 7) | 1 | 0.0312 | 82.5 | -0.526 | 106 | inactive
EFCAB7 (EF-hand calcium binding domain 7) | 2 | -0.457 | 72.8 | -0.363 | 89.5 | inactive
EFCAB7 (EF-hand calcium binding domain 7) | 3 | 0.227 | 86.4 | -0.51 | 110 | inactive
SLC36A3 | 1 | -0.708 | 67.8 | -0.0176 | 76.1 | inactive
SLC36A3 | 2 | -0.557 | 70.8 | -0.074 | 80.7 | inactive
SLC36A3 | 3 | 0.448 | 90.8 | -0.139 | 105 | inactive
MST1 (macrophage stimulating 1) | 1 | -1.9 | 44 | -1.94 | 81.9 | inactive
MST1 (macrophage stimulating 1) | 2 | -0.387 | 74.2 | -0.48 | 94.1 | inactive
MST1 (macrophage stimulating 1) | 3 | 0.233 | 86.5 | 0.545 | 83.8 | inactive
ZNF804B (zinc finger protein 804B) | 1 | -0.924 | 63.5 | -0.441 | 79.7 | inactive
ZNF804B (zinc finger protein 804B) | 2 | 0.538 | 92.6 | 0.677 | 86.6 | inactive
ZNF804B (zinc finger protein 804B) | 3 | 0.000529 | 81.9 | -0.0725 | 93.3 | inactive
EVL (Enah/Vasp-like) | 1 | 2.76 | 137 | 2.28 | 83.8 | inactive
EVL (Enah/Vasp-like) | 2 | 0.279 | 87.4 | 0.836 | 78.4 | inactive
EVL (Enah/Vasp-like) | 3 | 0.757 | 96.9 | 1.17 | 79.6 | inactive
DCANP1 (dendritic cell associated nuclear protein 1) | 1 | -0.216 | 77.6 | 0.0302 | 86 | inactive
DCANP1 (dendritic cell associated nuclear protein 1) | 2 | -0.449 | 73 | 0.177 | 77.8 | inactive
DCANP1 (dendritic cell associated nuclear protein 1) | 3 | 1.13 | 104 | 0.388 | 105 | inactive
SACS (sacsin molecular chaperone) | 1 | 0.0495 | 82.9 | -0.514 | 106 | inactive
SACS (sacsin molecular chaperone) | 2 | 2.36 | 129 | 1.61 | 94.3 | inactive
SACS (sacsin molecular chaperone) | 3 | -0.0929 | 80 | -1.07 | 119 | inactive
MROH9 (maestro heat like repeat family member 9) | 1 | 0.311 | 88.1 | 0.868 | 78.3 | inactive
MROH9 (maestro heat like repeat family member 9) | 2 | -0.223 | 77.4 | -0.523 | 99.3 | inactive
MROH9 (maestro heat like repeat family member 9) | 3 | -0.511 | 71.7 | -0.598 | 93.8 | inactive
TRO (trophinin) | 1 | 2.38 | 129 | 1.77 | 90.7 | inactive
TRO (trophinin) | 2 | 0.0703 | 83.3 | -0.371 | 103 | inactive
TRO (trophinin) | 3 | -0.48 | 72.3 | -1 | 105 | inactive
PHKA1 (phosphorylase kinase regulatory subunit alpha 1) | 1 | 1.15 | 105 | 1.17 | 86.1 | inactive
PHKA1 (phosphorylase kinase regulatory subunit alpha 1) | 2 | -0.854 | 64.9 | -0.583 | 84.5 | inactive
PHKA1 (phosphorylase kinase regulatory subunit alpha 1) | 3 | 0.349 | 88.8 | 0.636 | 84 | inactive
SLC18A2 | 1 | 0.185 | 85.6 | -0.0412 | 96.7 | inactive
SLC18A2 | 2 | -0.0661 | 80.6 | -0.277 | 96.8 | inactive
SLC18A2 | 3 | 0.078 | 83.4 | -0.78 | 114 | inactive
CRYGA (crystallin gamma A) | 1 | -0.465 | 72.6 | -0.0635 | 82.5 | inactive
CRYGA (crystallin gamma A) | 2 | 1.8 | 118 | 1.02 | 100 | inactive
CRYGA (crystallin gamma A) | 3 | 2.77 | 137 | 2.37 | 82 | inactive
DMAP1 (DNA methyltransferase 1 associated protein 1) | 1 | 1.53 | 112 | 1.5 | 84.5 | inactive
DMAP1 (DNA methyltransferase 1 associated protein 1) | 2 | 1.82 | 118 | 2.32 | 71.7 | inactive
DMAP1 (DNA methyltransferase 1 associated protein 1) | 3 | 2.29 | 128 | 1.46 | 97.1 | inactive
LOC646865 (retired record) | 1 | -0.461 | 72.7 | -0.00379 | 81.3 | inactive
LOC646865 (retired record) | 2 | -1.93 | 43.4 | -2.4 | 91.2 | inactive
LOC646865 (retired record) | 3 | -0.993 | 62.1 | -1.29 | 97.5 | inactive

Sorted by “total luciferase, z-score” (highest first): some entries from above.
gene knocked down | reagent | total luciferase, z-score | total luciferase, % of control | luciferase per cell, z-score | viable cells, % of control | Outcome
TRO (trophinin) | 1 | 2.38 | 129 | 1.77 | 90.7 | inactive
PHKA1 (phosphorylase kinase regulatory subunit alpha 1) | 1 | 1.15 | 105 | 1.17 | 86.1 | inactive
MROH9 (maestro heat like repeat family member 9) | 1 | 0.311 | 88.1 | 0.868 | 78.3 | inactive
TRO (trophinin) | 2 | 0.0703 | 83.3 | -0.371 | 103 | inactive
SACS (sacsin molecular chaperone) | 3 | -0.0929 | 80 | -1.07 | 119 | inactive
MROH9 (maestro heat like repeat family member 9) | 2 | -0.223 | 77.4 | -0.523 | 99.3 | inactive
TRO (trophinin) | 3 | -0.48 | 72.3 | -1 | 105 | inactive
MROH9 (maestro heat like repeat family member 9) | 3 | -0.511 | 71.7 | -0.598 | 93.8 | inactive

The listing continues.
gene knocked down | reagent | total luciferase, z-score | total luciferase, % of control | luciferase per cell, z-score | viable cells, % of control | Outcome
OR56A5 (olfactory receptor family 56 subfamily A member 5) | 1 | 1.63 | 114 | 1.7 | 81.6 | inactive
OR56A5 (olfactory receptor family 56 subfamily A member 5) | 2 | 0.467 | 91.2 | 0.693 | 84.9 | inactive
OR56A5 (olfactory receptor family 56 subfamily A member 5) | 3 | -0.24 | 77.1 | -0.274 | 92.6 | inactive
EREG (epiregulin) | 1 | 0.648 | 94.8 | 0.377 | 95.9 | inactive
EREG (epiregulin) | 2 | -0.891 | 64.2 | -0.903 | 90.9 | inactive
EREG (epiregulin) | 3 | 0.476 | 91.3 | 0.0949 | 99.6 | inactive
NDUFS7 (NADH:ubiquinone oxidoreductase core subunit S7) | 1 | -0.713 | 67.7 | -0.386 | 83.7 | inactive
NDUFS7 (NADH:ubiquinone oxidoreductase core subunit S7) | 2 | -0.272 | 76.5 | 0.222 | 80.6 | inactive
NDUFS7 (NADH:ubiquinone oxidoreductase core subunit S7) | 3 | 0.681 | 95.4 | 1.91 | 64.4 | inactive
KLF12 (KLF transcription factor 12) | 1 | -0.975 | 62.5 | -1.37 | 100 | inactive
KLF12 (KLF transcription factor 12) | 2 | -1.67 | 48.7 | -0.962 | 70.1 | inactive
KLF12 (KLF transcription factor 12) | 3 | -0.133 | 79.3 | -0.276 | 95.2 | inactive
BRS3 (bombesin receptor subtype 3) | 1 | 0.154 | 85 | -0.0411 | 96 | inactive
BRS3 (bombesin receptor subtype 3) | 2 | -0.571 | 70.5 | -0.568 | 91.5 | inactive
BRS3 (bombesin receptor subtype 3) | 3 | -1.21 | 57.8 | -1.37 | 92.8 | inactive
DRG2 (developmentally regulated GTP binding protein 2) | 1 | -0.501 | 71.9 | -0.994 | 104 | inactive
DRG2 (developmentally regulated GTP binding protein 2) | 2 | -0.377 | 74.4 | -0.0317 | 83.8 | inactive
DRG2 (developmentally regulated GTP binding protein 2) | 3 | 0.165 | 85.2 | 1.38 | 66.1 | inactive
BLOC1S6 (biogenesis of lysosomal organelles complex 1 subunit 6) | 1 | 0.607 | 94 | 0.104 | 102 | inactive
BLOC1S6 (biogenesis of lysosomal organelles complex 1 subunit 6) | 2 | -0.54 | 71.1 | -0.752 | 96.9 | inactive
BLOC1S6 (biogenesis of lysosomal organelles complex 1 subunit 6) | 3 | 1.44 | 111 | 0.568 | 106 | inactive
GTF3C1 (general transcription factor IIIC subunit 1) | 1 | -1.31 | 55.9 | -0.896 | 79.1 | inactive
GTF3C1 (general transcription factor IIIC subunit 1) | 2 | -1.48 | 52.4 | -1.73 | 92.2 | inactive
GTF3C1 (general transcription factor IIIC subunit 1) | 3 | 0.949 | 101 | 0.973 | 87.2 | inactive
ZSWIM5 (zinc finger SWIM-type containing 5) | 1 | 3.04 | 142 | 1.57 | 105 | active
ZSWIM5 (zinc finger SWIM-type containing 5) | 2 | 0.876 | 99.3 | 0.477 | 97.9 | inactive
ZSWIM5 (zinc finger SWIM-type containing 5) | 3 | 1.36 | 109 | 0.841 | 97.6 | inactive
FBXW10 (F-box and WD repeat domain containing 10) | 1 | 0.184 | 85.5 | -0.308 | 104 | inactive
FBXW10 (F-box and WD repeat domain containing 10) | 2 | -1.51 | 51.8 | 0.519 | 50.5 | inactive
FBXW10 (F-box and WD repeat domain containing 10) | 3 | 0.531 | 92.4 | 0.206 | 97.9 | inactive
